This experiment concerns the target Toll-like receptor 4 (TLR4) (human (endogenous in BEAS-2B)) (UniProt O00206). Briefly: co-IP; endogenous proteins in NP40 lysates of BEAS-2B cells; overnight at 4 °C with immunoprecipitating antibody against MUC1-CT, MyD88, TLR4 or rabbit IgG, protein A/G agarose beads 2 h, immunoblot; cells with or without LPS (5 µg/mL, 24 h) and MUC1-siRNA or NC-siRNA.

Chains of the proteins cited; added tags and fusions are not shown. Residues count along the entry.
UniProt O00206, residues 24-839: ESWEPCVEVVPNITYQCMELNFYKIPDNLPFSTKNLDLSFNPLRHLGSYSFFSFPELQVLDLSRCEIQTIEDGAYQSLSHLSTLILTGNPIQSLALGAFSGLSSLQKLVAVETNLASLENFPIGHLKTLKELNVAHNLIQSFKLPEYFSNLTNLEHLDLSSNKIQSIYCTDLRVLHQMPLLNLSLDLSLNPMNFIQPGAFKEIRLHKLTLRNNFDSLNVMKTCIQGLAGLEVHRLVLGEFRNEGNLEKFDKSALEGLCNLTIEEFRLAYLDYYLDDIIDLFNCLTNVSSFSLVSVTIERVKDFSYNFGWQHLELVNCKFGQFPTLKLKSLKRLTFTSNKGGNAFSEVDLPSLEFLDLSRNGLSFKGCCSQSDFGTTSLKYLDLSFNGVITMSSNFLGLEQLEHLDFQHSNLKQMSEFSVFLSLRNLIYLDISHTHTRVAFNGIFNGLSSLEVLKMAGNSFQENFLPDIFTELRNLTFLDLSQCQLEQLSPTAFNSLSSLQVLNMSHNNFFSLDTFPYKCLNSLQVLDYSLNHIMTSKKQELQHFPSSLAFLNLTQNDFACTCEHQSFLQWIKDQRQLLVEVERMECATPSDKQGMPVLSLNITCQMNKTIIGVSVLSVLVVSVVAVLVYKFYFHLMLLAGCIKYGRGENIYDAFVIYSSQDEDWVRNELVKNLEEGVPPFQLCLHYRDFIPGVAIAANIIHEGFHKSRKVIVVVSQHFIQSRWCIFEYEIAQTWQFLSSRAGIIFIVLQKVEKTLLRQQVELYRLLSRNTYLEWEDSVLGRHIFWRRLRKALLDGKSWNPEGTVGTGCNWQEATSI
UniProt P15941, residues 24-1255: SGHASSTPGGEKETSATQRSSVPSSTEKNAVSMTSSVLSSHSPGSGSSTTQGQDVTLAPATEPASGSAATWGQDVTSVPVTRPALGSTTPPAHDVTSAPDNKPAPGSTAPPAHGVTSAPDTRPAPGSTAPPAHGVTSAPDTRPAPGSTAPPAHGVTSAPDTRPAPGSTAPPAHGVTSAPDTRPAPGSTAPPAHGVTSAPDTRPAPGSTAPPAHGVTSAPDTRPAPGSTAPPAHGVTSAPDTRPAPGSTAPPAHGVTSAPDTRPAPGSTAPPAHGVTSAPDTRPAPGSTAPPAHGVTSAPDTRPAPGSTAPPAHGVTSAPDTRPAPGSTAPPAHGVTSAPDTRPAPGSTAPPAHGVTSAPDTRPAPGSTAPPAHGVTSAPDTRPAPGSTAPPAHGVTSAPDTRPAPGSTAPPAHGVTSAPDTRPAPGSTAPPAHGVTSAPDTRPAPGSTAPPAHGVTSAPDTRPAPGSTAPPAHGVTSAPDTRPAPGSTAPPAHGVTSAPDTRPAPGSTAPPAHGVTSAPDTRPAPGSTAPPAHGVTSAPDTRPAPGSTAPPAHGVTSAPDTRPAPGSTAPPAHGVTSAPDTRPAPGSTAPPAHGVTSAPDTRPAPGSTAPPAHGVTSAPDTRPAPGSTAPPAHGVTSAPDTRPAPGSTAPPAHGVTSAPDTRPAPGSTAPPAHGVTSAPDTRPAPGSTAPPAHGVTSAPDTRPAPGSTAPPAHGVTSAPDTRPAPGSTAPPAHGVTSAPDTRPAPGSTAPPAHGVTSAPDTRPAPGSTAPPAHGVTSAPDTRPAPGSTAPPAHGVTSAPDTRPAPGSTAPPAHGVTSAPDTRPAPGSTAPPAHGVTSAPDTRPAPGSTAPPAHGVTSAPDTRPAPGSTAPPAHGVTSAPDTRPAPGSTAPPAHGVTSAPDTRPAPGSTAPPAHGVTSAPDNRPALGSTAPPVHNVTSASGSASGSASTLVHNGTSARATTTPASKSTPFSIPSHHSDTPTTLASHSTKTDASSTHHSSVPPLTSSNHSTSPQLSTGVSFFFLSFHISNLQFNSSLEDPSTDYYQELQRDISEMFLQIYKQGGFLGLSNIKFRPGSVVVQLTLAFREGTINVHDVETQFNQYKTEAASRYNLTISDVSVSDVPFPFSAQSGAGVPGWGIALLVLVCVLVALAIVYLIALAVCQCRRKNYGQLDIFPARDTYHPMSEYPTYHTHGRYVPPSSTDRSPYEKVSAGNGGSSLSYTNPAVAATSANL
UniProt Q99836: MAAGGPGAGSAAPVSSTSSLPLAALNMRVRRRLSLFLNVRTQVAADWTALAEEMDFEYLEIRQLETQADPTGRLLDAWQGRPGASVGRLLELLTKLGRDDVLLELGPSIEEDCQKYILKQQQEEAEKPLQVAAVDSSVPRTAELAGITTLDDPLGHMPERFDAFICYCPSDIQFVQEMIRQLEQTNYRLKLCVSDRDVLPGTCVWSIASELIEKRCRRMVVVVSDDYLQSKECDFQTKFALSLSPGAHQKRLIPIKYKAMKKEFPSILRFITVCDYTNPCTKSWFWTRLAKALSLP

Experimental findings from publication PMC10601133 are described below.

Results are given in words; binding and its absence hold for the method and conditions named. In cells and extracts the contact can be indirect. Some entries that bind do so weakly or less than the wild type.

Turning to “Mucin 1 (MUC1) (from UniProt P15941 24-1255)”, the binding result is listed as “binds”. Then “myeloid differentiation primary response 88 (MyD88) (from UniProt Q99836 1-296)”, with “binds”.
